Experimental data taken from paper PMC11835494.

Assays:
Test in all cases: EMSA
HELQ (human) = target: T1, HELQ (human) (UniProt Q8TDG4); details: no RPA; EMSA buffer; M13 agarose gel shifts without ATP; recombinant protein; label: Cy5 at RNA 3' end; DNA:RNA hybrid
T1 sequence (looked up, limits assumed): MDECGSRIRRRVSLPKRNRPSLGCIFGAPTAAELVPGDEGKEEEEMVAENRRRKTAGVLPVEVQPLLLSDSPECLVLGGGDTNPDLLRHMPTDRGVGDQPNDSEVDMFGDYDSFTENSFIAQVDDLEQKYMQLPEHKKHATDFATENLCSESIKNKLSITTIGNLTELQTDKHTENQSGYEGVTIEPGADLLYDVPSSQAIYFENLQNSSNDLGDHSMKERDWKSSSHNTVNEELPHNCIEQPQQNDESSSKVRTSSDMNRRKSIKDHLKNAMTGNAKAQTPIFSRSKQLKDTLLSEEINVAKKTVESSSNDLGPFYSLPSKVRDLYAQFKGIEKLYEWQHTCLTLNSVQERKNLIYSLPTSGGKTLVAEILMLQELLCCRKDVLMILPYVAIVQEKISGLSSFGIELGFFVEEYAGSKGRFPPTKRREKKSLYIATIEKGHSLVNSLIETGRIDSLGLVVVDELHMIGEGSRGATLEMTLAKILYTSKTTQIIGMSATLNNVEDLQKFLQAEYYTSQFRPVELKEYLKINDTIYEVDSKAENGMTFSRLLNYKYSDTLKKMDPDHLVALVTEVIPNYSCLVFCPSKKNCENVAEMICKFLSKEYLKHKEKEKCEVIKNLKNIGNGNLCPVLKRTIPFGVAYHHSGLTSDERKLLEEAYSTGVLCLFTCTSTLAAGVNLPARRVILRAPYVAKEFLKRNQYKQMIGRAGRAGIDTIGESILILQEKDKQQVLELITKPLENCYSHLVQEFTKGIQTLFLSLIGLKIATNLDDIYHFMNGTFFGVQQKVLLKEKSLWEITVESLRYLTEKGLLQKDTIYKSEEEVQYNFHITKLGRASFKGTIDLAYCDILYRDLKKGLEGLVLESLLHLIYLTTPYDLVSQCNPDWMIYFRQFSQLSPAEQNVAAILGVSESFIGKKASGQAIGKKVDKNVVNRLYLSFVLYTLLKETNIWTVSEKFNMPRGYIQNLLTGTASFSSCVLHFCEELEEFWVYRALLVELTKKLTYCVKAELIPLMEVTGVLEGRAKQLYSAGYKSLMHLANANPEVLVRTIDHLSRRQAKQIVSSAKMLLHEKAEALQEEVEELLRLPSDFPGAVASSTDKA

HELQ + RPA trimer = details: HELQ plus RPA; EMSA buffer; M13 agarose gel shifts without ATP; recombinant protein; label: Cy5 at RNA 3' end; DNA:RNA hybrid
RPA trimer = details: EMSA buffer; M13 agarose gel shifts without ATP; recombinant protein; label: Cy5 at RNA 3' end; DNA:RNA hybrid

“GGGTGAACCTGCAGGTGGGCGGCTGCTCATCGTAGGTTAGTTGGTAGAATTCGGCAGCGTC / GACGCTGCCGAATTCTACCAGTGCCTTGCTAGGACATCTTTGCCCACCTGCAGGTTCACCC / AAAGAUGUCCUAGCAAGGCAC [small synthetic R-loop (RL)]”: no binding (HELQ (human)); binds (HELQ + RPA trimer); binds (RPA trimer).

For at least one entry, the source does not settle the construct or the ends of the probe. For part of these data: A negative result means that nothing was seen under these conditions. For part of these data: Tags and fusion partners may be left off the protein sequences shown.
